According to patent US7598067B2, “PDEs and uses thereof” (priority 2000, dated 2009):

Tested on: bloodstream form trypanosomes
Experiment: Cytotoxicity / cell proliferation of bloodstream form trypanosomes, acid phosphatase assay
Format: cell-based, Trypanosoma brucei
Settings: inhibition of cell proliferation, bloodstream forms in culture

OCCN(CCO)c1nc(N2CCCCC2)c2nc(N(CCO)CCO)nc(N3CCCCC3)c2n1 [Dipyridamole, dipyridamole]
Hill slope of the dose-response curve: 1.38±021 and 1.37±0.21

CCOc1ccc(Cc2nccc3cc(OCC)c(OCC)cc23)cc1OCC [Ethaverine]
Hill slope of the dose-response curve: 5.19±1.52

CCCc1nn(C)c2c(=O)[nH]c(-c3cc(S(=O)(=O)N4CCN(C)CC4)ccc3OCC)nc12 [Sildenafil, sildenafil]
Hill slope of the dose-response curve: 1.73±0.69

COc1cc2c(cc1OC)-c1c/c(=N\c3c(C)cc(C)cc3C)n(C)c(=O)n1CC2 [Trequinsin]
Hill slope of the dose-response curve: 1.09±0.63

“And” between values parts separate entries of the source, which are not always exact repeats. Equal values may be shown once.
